Assay results as given in PMC4877375.
No constants are given. Whether binding was seen depends on the method and setting. Binding seen in cells or lysates may run through a third protein. A yes stands for co-enrichment or nearness to the bait. Other partners may have been found.

T1: Trs120p-TAP (yeast (endogenous in the yeast strain)) (UniProt Q04183)
T1 sequence: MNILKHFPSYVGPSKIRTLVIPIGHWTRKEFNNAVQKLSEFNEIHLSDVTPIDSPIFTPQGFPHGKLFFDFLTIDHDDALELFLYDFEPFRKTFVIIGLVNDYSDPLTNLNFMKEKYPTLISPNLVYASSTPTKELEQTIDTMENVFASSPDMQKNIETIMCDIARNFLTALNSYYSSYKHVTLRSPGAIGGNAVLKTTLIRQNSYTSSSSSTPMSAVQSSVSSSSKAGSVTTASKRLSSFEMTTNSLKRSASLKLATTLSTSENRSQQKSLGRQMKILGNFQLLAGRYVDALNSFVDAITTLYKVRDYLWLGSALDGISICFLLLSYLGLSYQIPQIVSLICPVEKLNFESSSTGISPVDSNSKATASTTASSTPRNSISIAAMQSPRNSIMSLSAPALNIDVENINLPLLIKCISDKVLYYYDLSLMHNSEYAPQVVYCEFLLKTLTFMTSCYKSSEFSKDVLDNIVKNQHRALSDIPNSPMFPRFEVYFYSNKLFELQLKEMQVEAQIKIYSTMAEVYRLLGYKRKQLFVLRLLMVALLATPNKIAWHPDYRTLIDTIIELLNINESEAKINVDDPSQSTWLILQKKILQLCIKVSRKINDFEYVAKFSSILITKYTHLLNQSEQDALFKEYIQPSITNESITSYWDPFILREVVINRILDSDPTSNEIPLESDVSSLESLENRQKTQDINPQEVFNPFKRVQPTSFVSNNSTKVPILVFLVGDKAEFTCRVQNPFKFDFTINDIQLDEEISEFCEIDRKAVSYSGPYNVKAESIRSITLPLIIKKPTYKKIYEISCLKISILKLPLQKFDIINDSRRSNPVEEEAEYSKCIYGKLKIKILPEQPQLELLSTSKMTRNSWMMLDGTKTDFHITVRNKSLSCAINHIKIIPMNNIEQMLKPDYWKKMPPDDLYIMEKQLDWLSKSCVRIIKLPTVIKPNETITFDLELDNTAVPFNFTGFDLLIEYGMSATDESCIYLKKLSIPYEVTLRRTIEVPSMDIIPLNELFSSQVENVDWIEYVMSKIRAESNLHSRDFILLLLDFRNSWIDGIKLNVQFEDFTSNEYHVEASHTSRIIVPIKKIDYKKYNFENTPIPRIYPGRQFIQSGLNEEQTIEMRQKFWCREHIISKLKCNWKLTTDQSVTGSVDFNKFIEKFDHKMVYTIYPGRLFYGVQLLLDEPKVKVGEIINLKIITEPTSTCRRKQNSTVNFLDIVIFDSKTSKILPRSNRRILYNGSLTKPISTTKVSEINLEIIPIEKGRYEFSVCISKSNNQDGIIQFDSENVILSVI

B1: TRS31 (protein, UniProt Q03337 1-283)
chain: MSQRIIQPSASDQQFPGKSDGYEYTVGPKQAITSEASTTYIPSRIYSESLLFKRQEASLSAMAFLFQEMISQLHRTCKTAGDFETKLSDYGHNIGIRLLELLNFRASVSPSSLPRASAFLSQNESSSKLSNASNSPGMLANSSTATSASANERLQEKQTESLSNYITKMRRRDLKILDILQFIHGTLWSYLFNHVSDDLVKSSERDNEYMIVDNFPTLTQFIPGENVSCEYFVCGIIKGFLFNAGFPCGVTAHRMPQGGHSQRTVYLIQFDRQVLDREGLRFG
B2: SEC28 (protein, UniProt P40509 1-296)
chain: MDYFNIKQNYYTGNFVQCLQEIEKFSKVTDNTLLFYKAKTLLALGQYQSQDPTSKLGKVLDLYVQFLDTKNIEELENLLKDKQNSPYELYLLATAQAILGDLDKSLETCVEGIDNDEAEGTTELLLLAIEVALLNNNVSTASTIFDNYTNAIEDTVSGDNEMILNLAESYIKFATNKETATSNFYYYEELSQTFPTWKTQLGLLNLHLQQRNIAEAQGIVELLLSDYYSVEQKENAVLYKPTFLANQITLALMQGLDTEDLTNQLVKLDHEHAFIKHHQEIDAKFDELVRKYDTSN
B3: VPS1 (protein, UniProt P21576 1-704)
chain: MDEHLISTINKLQDALAPLGGGSQSPIDLPQITVVGSQSSGKSSVLENIVGRDFLPRGTGIVTRRPLVLQLINRRPKKSEHAKVNQTANELIDLNINDDDKKKDESGKHQNEGQSEDNKEEWGEFLHLPGKKFYNFDEIRKEIVKETDKVTGANSGISSVPINLRIYSPHVLTLTLVDLPGLTKVPVGDQPPDIERQIKDMLLKYISKPNAIILSVNAANTDLANSDGLKLAREVDPEGTRTIGVLTKVDLMDQGTDVIDILAGRVIPLRYGYIPVINRGQKDIEHKKTIREALENERKFFENHPSYSSKAHYCGTPYLAKKLNSILLHHIRQTLPEIKAKIEATLKKYQNELINLGPETMDSASSVVLSMITDFSNEYAGILDGEAKELSSQELSGGARISYVFHETFKNGVDSLDPFDQIKDSDIRTIMYNSSGSAPSLFVGTEAFEVLVKQQIRRFEEPSLRLVTLVFDELVRMLKQIISQPKYSRYPALREAISNQFIQFLKDATIPTNEFVVDIIKAEQTYINTAHPDLLKGSQAMVMVEEKLHPRQVAVDPKTGKPLPTQPSSSKAPVMEEKSGFFGGFFSTKNKKKLAALESPPPVLKATGQMTERETMETEVIKLLISSYFSIVKRTIADIIPKALMLKLIVKSKTDIQKVLLEKLYGKQDIEELTKENDITIQRRKECKKMVEILRNASQIVSSV
B4: TRS20 (protein, UniProt P38334 1-175)
chain: MPQYFAIIGKKDNPVYEIEFTNAENPQGFPQDLKELNPFILHASLDIVEDLQWQINPTSQLNGNGGNGSNGGGGFLRSRAVNNTDNCYLGKVDHFYGLAITAYISYSGMKFVMIHGNSANSSVVIDDNNMRSFYQEVHELYVKTLMNPFYKITDPIRSPAFDSRVRTLARKHLSK
B5: BET5 (protein, UniProt Q03630 1-159)
chain: MGIYSFWIFDRHCNCIFDREWTLASNSASGTINSKQNEEDAKLLYGMIFSLRSITQKLSKGSVKNDIRSISTGKYRVHTYCTASGLWFVLLSDFKQQSYTQVLQYIYSHIYVKYVSNNLLSPYDFAENENEMRGQGTRKITNRNFISVLESFLAPMVNQ

Target: T1, Trs120p-TAP (yeast (endogenous in the yeast strain))
Experiment: affinity purification with mass spectrometry; Trs120p-TAP purified from yeast lysate (1% CHAPS, 100 mM NaCl) on IgG beads, TEV elution, calmodulin beads, EGTA elution; gel bands or total eluate analysed by MS/MS

binding | Binder
binds | B1
binds | B2
binds | B3
binds | B4
binds | B5
